Reference: PubChem BioAssay AID248 (DTP/NCI, 2004)
The list does not hold the whole screen: it gathers tests that were run many times, whatever their T/C, doses with no T/C, and many T/C values between a quarter and a half above the control. Other doses and runs of a compound stand elsewhere. T/C is the treated group as % of the vehicle group. Some doses have a count of surviving animals in place of a T/C: the source files T/C as zero there, which appears to mark a toxic dose or a test without result, not a measured value. Some survivor counts are full or nearly so, which does not show that the dose was tolerated: survival well below the control is almost never listed, so the zero probably covers shortened survival too. Survivors were counted at the toxicity check, usually on the fifth day, unless a day is given; later deaths do not show. Schedules are NCI's codes, taken here to give the interval after Q, in days (D) or hours (H), and the number of doses after X. Signs of the kind (2×) count equal records among those shown. Some doses were run more than once; the results are listed from low to high. Some schedule codes hold Z or #, which are not explained here. Some molecules as drawn cover several salts, stereoisomers or complexes of the source; a dose is that of the sample tested. Where survival is the endpoint, this PubChem deposit counts one and a half times the control or more as active, and values a quarter to a half above the control carry no call in these data; other NCI protocols may use other cut-offs.

System: L1210 leukemia ip in BDF1 mice, survival T/C
Assay: NCI In Vivo Anticancer Drug Screen. Data for tumor model L1210 Leukemia (intraperitoneal) in B6D2F1 (BDF1) mice
Conditions: T/C endpoint: mean survival time, higher T/C = longer survival
[1] = dose: 400.0 mg/kg/injection, schedule: Q04DX003 (ip), vehicle: Klucel (hydroxypropylcellulose) (HPC)
[2] = dose: 50.0 mg/kg/injection, schedule: Q04DX003 (ip), vehicle: saline with Tween-80
[3] = dose: 100.0 mg/kg/injection, schedule: Q04DX003 (ip), vehicle: saline with Tween-80
[4] = dose: 200.0 mg/kg/injection, schedule: Q04DX003 (ip), vehicle: saline with Tween-80
[5] = dose: 400.0 mg/kg/injection, schedule: Q04DX003 (ip), vehicle: saline with Tween-80
[6] = dose: 400.0 mg/kg/injection, schedule: Q01DX001 (ip), vehicle: saline
[7] = dose: 200.0 mg/kg/injection, schedule: Q04DX003 (ip), vehicle: Klucel (hydroxypropylcellulose) (HPC)
[8] = dose: 300.0 mg/kg/injection, schedule: Q01DX001 (ip), vehicle: saline
[9] = dose: 400.0 mg/kg/injection, schedule: Q04DX002 (ip), vehicle: Klucel (hydroxypropylcellulose) (HPC)
[10] = dose: 400.0 mg/kg/injection, schedule: Q01DX009 (ip), vehicle: saline with Tween-80
[11] = dose: 100.0 mg/kg/injection, schedule: Q01DX001 (ip), vehicle: saline
[12] = dose: 200.0 mg/kg/injection, schedule: Q01DX001 (ip), vehicle: saline

Cn1c2c(sc1=O)CCC2
T/C (dose: 100.0 mg/kg/injection, schedule: Q01DX Z (ip), vehicle: methylcellulose (MC)): 127 % of control
survivor count [1]: 2 of 6

CCN(CCCCOC(=O)c1ccc(OC)c(OC)c1)C(C)Cc1ccc(OC)cc1 (stereo not given)
survivor count (dose: 150.0 mg/kg/injection, schedule: Q01DX009 (ip), vehicle: saline): 1 of 6
survivor count (dose: 300.0 mg/kg/injection, schedule: Q04DX003 (ip), vehicle: saline): 0 of 4

O=C(Nc1nc(Cl)nc(Cl)n1)N1CCOCC1
survivor count (dose: 50.0 mg/kg/injection, schedule: Q01DX009 (ip), vehicle: saline with Tween-80): 1 of 6
survivor count [2]: 2 of 6
survivor count (dose: 100.0 mg/kg/injection, schedule: Q01DX009 (ip), vehicle: saline with Tween-80): 0 of 6
survivor count [3]: 1 of 6
survivor count [4]: 1 of 6
survivor count [5]: 0 of 6

CC12CCc3occc3C1CCC13CC(CO)C(O)(CCC12)C3 (stereo not given)
survivor count (dose: 400.0 mg/kg/injection, schedule: Q04DX003 (ip), vehicle: saline): 2 of 4

O=C(NCCCCCCCCNC(=O)Nc1ccc(C2=NCCN2)cc1)Nc1ccc(C2=NCCN2)cc1
T/C (dose: 50.0 mg/kg/injection, schedule: Q01DX Z (ip), vehicle: carboxymethylcellulose (CMC)): 136 % of control
T/C (dose: 75.0 mg/kg/injection, schedule: Q01DX Z (ip), vehicle: carboxymethylcellulose (CMC)): 132 % of control
T/C (dose: 200.0 mg/kg/injection, schedule: Q01DX Z (ip), vehicle: carboxymethylcellulose (CMC)): 127 % of control
survivor count (dose: 500.0 mg/kg/injection, schedule: Q01DX Z (ip), vehicle: carboxymethylcellulose (CMC)): 0 of 6

CCCCCCC(=O)N(CCC)CCC
survivor count (dose: 400.0 mg/kg/injection, schedule: Q01DX001 (ip), vehicle: carboxymethylcellulose (CMC)): 3 of 6
survivor count (dose: 400.0 mg/kg/injection, schedule: Q01DX009 (ip), vehicle: carboxymethylcellulose (CMC)): 0 of 3 and 0 of 6
survivor count (dose: 400.0 mg/kg/injection, schedule: Q04DX003 (ip), vehicle: carboxymethylcellulose (CMC)): 3 of 6

N=C(N)c1ncn(C2CC(O)C(CO)O2)c1N (stereo not given)
survivor count [6]: 1 of 6

C=CCc1cc(CNCC(C)O)c(O)c(OC)c1 (stereo not given)
survivor count [7]: 5 of 6

CCN(CC)CCCC(C)Nc1cccc2c1C(=O)c1ccccc1C2=O (stereo not given)
survivor count (dose: 200.0 mg/kg/injection, schedule: Q04DX002 (ip), vehicle: saline): 1 of 3
survivor count (dose: 400.0 mg/kg/injection, schedule: Q04DX002 (ip), vehicle: saline): 0 of 3

O=C(N/N=C/NN/C=N/NC(=O)c1ccncc1)c1ccncc1
survivor count [8]: 1 of 6

CNC(Cc1ccccc1)C1CCCCC1 (stereo not given)
survivor count (dose: 50.0 mg/kg/injection, schedule: Q04DX003 (ip), vehicle: Klucel (hydroxypropylcellulose) (HPC)): 6 of 6
survivor count (dose: 100.0 mg/kg/injection, schedule: Q04DX003 (ip), vehicle: Klucel (hydroxypropylcellulose) (HPC)): 0 of 6 and 4 of 6
survivor count [7]: 0 of 6
survivor count [1]: 0 of 6

COc1cc(/C=C2\C(=O)C=C(C)CC2(C)C)ccc1O
survivor count [3]: 6 of 6
survivor count [5]: 6 of 6

OCCN(CCO)Cc1cc(Cl)c2cccnc2c1O
survivor count [8]: 2 of 6

CCCCOC(=O)CN(C)/N=N/c1nc[nH]c1C(=O)OCC
survivor count (dose: 200.0 mg/kg/injection, schedule: Q01DX001 (ip), vehicle: Klucel (hydroxypropylcellulose) (HPC)): 2 of 6
survivor count (dose: 400.0 mg/kg/injection, schedule: Q01DX001 (ip), vehicle: Klucel (hydroxypropylcellulose) (HPC)): 0 of 6

O=c1[nH]c(-c2ccc(O)cc2)nc2[nH]ncc12
survivor count [1]: 6 of 6

CC(=O)N/N=C/c1ccc2c(c1)CCC2
survivor count [5]: 0 of 6

CCCCCCCCCCCCCCCCCCNC(=O)Nc1cccc2ccccc12
survivor count (dose: 100.0 mg/kg/injection, schedule: Q01DX009 (ip), vehicle: carboxymethylcellulose (CMC)): 5 of 6
survivor count (dose: 100.0 mg/kg/injection, schedule: Q04DX002 (ip), vehicle: carboxymethylcellulose (CMC)): 6 of 6
survivor count (dose: 200.0 mg/kg/injection, schedule: Q01DX009 (ip), vehicle: carboxymethylcellulose (CMC)): 3 of 3
survivor count [9]: 1 of 3

Cn1nc(NC(=O)C(F)(F)F)c2nccnc21
survivor count [10]: 5 of 6

C[N+](C)(Cc1ccccc1)Cc1ccccc1
survivor count (dose: 50.0 mg/kg/injection, schedule: Q01DX001 (ip), vehicle: saline): 1 of 4
survivor count [11]: 0 of 4
survivor count (dose: 150.0 mg/kg/injection, schedule: Q01DX001 (ip), vehicle: saline): 1 of 6
survivor count [12]: 0 of 4
survivor count [8]: 1 of 6
survivor count [6]: 0 of 4

NC(CSS(=O)(=O)O)=NCc1ccsc1
survivor count (dose: 50.0 mg/kg/injection, schedule: Q04DX002 (ip), vehicle: Klucel (hydroxypropylcellulose) (HPC)): 0 of 3
survivor count (dose: 100.0 mg/kg/injection, schedule: Q04DX002 (ip), vehicle: Klucel (hydroxypropylcellulose) (HPC)): 1 of 3
survivor count (dose: 200.0 mg/kg/injection, schedule: Q04DX002 (ip), vehicle: Klucel (hydroxypropylcellulose) (HPC)): 1 of 3
survivor count [9]: 0 of 3

O=C(Nc1ccc(Cl)cc1)c1cccnc1
survivor count [10]: 4 of 6

O=S(=O)(n1ccnc1)C(F)(F)F
survivor count (dose: 80.0 mg/kg/injection, schedule: Q01DX001 (ip), vehicle: saline): 1 of 6

CCC(O)C[As](=O)(O)c1ccccc1OC (stereo not given)
survivor count (dose: 25.0 mg/kg/injection, schedule: Q04DX003 (ip), vehicle: saline with Tween-80): 5 of 6
survivor count [2]: 1 of 6
survivor count [3]: 0 of 6 (2×)
survivor count [4]: 0 of 6
survivor count [5]: 0 of 6

C1CCCCCC(N2CCCC2)CCCCC1
survivor count (dose: 50.0 mg/kg/injection, schedule: Q04DX003 (ip), vehicle: saline): 6 of 6
survivor count [11]: 2 of 6
survivor count [12]: 0 of 6
survivor count [6]: 0 of 6
